For test [1], the target named is guanylyl cyclase-linked receptor GC-B (NPR-B), endogenous (human (endogenous in HMC)) (UniProt P20594). The test is described as follows: co-IP; membrane fractions (HUVEC or HMC) solubilised in CHAPS immunoprecipitation buffer; 300 µg protein with 1 µg anti-GC-A or anti-GC-B antibody or control IgG, 4 h to overnight at 4°C; protein A/G Plus-Agarose; blot with anti-PDI monoclonal antibody (RL90).

Chains of the proteins cited; added tags and fusions are not shown. Residues count along the entry.
UniProt P20594, residues 23-1047: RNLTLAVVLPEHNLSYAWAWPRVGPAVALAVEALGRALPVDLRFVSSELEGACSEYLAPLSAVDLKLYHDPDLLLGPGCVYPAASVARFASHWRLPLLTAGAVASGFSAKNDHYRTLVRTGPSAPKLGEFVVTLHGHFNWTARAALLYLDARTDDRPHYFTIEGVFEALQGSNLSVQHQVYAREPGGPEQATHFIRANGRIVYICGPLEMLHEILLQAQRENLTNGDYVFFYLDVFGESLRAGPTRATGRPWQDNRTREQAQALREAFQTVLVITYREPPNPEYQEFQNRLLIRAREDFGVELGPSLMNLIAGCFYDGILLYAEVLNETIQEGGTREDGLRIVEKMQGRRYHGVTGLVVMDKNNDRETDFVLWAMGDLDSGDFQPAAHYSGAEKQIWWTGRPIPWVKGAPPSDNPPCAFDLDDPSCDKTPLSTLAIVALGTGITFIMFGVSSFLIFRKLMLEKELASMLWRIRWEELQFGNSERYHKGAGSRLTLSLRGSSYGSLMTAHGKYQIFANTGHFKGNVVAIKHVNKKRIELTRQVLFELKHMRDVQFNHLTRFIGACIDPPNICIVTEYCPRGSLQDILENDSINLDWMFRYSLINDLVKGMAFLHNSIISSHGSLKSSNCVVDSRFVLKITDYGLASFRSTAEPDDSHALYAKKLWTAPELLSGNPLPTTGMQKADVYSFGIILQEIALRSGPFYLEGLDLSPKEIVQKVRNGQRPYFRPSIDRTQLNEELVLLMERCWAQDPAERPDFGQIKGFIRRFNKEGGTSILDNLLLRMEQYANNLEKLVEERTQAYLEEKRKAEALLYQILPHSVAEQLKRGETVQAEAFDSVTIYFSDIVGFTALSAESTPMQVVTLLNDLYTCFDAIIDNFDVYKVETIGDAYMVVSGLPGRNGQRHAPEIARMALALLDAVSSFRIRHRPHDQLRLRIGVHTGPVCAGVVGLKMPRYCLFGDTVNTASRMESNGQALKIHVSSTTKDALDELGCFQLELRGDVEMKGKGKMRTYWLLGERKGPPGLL
UniProt P16066, residues 33-1061: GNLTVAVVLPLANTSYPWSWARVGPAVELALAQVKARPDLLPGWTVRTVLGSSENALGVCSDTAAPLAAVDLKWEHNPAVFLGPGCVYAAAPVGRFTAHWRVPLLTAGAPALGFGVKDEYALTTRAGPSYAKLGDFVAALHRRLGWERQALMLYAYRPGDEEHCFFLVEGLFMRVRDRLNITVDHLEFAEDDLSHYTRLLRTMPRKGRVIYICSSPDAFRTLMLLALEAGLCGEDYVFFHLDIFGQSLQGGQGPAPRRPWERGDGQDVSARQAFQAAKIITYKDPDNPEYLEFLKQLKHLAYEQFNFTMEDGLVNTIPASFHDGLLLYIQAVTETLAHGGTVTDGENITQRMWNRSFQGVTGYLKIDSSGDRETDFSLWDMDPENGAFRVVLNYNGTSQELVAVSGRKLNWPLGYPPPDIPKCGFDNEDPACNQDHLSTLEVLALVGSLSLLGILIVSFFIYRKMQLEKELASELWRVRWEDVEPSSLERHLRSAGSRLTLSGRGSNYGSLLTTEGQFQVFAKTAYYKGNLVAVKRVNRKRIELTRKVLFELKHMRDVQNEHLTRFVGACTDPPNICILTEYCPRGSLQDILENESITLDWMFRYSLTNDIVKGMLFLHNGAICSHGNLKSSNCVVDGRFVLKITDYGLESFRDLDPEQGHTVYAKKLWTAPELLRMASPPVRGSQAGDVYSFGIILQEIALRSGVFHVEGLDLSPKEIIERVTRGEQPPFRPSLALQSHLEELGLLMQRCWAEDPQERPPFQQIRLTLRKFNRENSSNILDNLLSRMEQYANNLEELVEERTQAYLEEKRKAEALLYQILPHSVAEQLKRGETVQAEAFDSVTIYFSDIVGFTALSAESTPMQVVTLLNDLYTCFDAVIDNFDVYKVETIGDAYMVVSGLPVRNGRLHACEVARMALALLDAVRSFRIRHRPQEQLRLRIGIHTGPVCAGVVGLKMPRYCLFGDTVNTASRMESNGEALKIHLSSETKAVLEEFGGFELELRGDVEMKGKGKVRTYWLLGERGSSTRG
UniProt P07237, residues 18-508: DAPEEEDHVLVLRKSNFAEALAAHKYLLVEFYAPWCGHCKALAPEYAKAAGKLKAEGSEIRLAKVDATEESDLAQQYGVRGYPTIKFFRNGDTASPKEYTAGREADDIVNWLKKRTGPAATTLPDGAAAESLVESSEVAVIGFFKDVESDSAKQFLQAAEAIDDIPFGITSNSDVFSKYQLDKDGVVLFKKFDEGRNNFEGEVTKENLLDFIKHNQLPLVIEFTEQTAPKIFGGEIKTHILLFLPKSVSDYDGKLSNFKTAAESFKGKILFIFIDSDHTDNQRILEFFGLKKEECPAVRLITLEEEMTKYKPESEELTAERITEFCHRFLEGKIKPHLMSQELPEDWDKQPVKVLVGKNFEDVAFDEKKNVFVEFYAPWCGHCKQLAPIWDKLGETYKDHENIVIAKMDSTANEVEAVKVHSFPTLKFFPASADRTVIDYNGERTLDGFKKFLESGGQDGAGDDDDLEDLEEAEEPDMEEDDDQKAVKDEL

Test [2] has as its target guanylyl cyclase-linked receptor GC-A (NPR-A), endogenous (human (endogenous in HUVEC)) (UniProt P16066). Described as above.

Results are given in words; binding and its absence hold for the method and conditions named. Binding seen in cells or lysates may run through a third protein. Some results given as binding are weak or reduced against the parent protein; the word gives no strength.

Take “membrane bound protein disulfide isomerase (PDI), endogenous (from UniProt P07237 18-508) (enzyme)”: the binding entry in test [1] and in test [2] was “binds” throughout.

These data come from article PMC4242536, “Cell Surface Protein Disulfide Isomerase Regulates Natriuretic Peptide Generation of Cyclic Guanosine Monophosphate” (PLoS ONE, 2014).
